From PubChem BioAssay AID743255 (National Center for Advancing Translational Sciences (NCATS), 2014)
Hit rate of the full screen: of about 390,000 compounds, about 910 (0.23%) were called active. The inconclusive results got no clear call from the source; some entries with a clear call stand among them for comparison. Calls come from the whole dose curve; as a rule, active = well fitted inhibition curve with a large enough effect; inconclusive = small, poorly fitted or top-dose-only effect; inactive = no such curve, though single readings can be large or run the other way. Where the call is inconclusive, the potency comes from a doubtful curve fit.

Chains of the proteins cited; added tags and fusions are not shown. Lines headed by an entry give the natural chain unless they say otherwise; changes in a name come on top.
UniProt O94782: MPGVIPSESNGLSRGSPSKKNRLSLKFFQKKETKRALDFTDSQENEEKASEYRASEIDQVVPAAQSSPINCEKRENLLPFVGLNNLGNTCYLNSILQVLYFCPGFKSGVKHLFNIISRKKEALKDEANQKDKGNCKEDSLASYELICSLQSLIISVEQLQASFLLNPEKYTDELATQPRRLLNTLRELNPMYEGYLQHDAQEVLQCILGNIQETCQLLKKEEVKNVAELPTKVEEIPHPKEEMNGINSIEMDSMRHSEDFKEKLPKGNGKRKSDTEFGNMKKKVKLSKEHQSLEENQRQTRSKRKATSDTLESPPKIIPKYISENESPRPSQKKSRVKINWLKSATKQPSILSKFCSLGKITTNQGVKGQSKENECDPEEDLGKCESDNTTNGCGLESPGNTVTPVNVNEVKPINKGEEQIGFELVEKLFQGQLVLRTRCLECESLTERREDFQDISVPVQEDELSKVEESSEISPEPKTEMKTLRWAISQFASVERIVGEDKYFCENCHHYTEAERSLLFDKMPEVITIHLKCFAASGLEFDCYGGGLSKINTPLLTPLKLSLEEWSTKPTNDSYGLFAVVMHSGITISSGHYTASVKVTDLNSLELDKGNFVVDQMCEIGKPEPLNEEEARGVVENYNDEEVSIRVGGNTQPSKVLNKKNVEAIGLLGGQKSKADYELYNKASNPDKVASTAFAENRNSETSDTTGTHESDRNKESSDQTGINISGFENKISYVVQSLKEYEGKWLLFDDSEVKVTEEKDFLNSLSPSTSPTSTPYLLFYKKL

molecular target: Ubiquitin carboxyl-terminal hydrolase 1 (Homo sapiens) (UniProt O94782); experiment: Inhibitors of USP1/UAF1: Primary Screen; details: recombinant USP1/UAF1, Ub-Rhodamine cleavage fluorescence; activity change, negative = inhibition: at 57.1 µM (top of the series); note: nearly all actives have a fitted effect of over 60% in size
Procedure, shortened: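 In this screen, compounds sit with the deubiquitinase complex (1nM) for 15 min at room temperature before Ub-Rho is added at 150nM final. Fluorescence rise is then followed for 6 reads every 60 seconds.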
% is set by controls: 0 for no effect and ±100 for the full control effect; potency is the fitted concentration of half-maximal effect.

Potency, active:
O=c1[nH]c(Nc2ccccc2)cc2cc(Br)ccc12 1.12 µM

Potency, inconclusive:
Cc1cc(C)c2cc3c(N)c(C(=O)Nc4c(C)[nH]c(=O)[nH]c4=O)sc3nc2c1 35.5 µM [inhibitor, single point]
COCCNC(=O)/C(C#N)=C1\N=C(NC(=O)c2ccco2)c2ccccc21 44.7 µM [inhibitor, partial curve, poor fit]
CCc1ccc(NC(=O)CCS(=O)(=O)c2ccc3c(c2)oc(=O)n3C)cc1 0.398 µM [inhibitor, full curve, poor fit]
O=C(NCc1cccnc1)NC1(c2ccccc2)CC1 39.8 µM [inhibitor, single point]
O=CN(Cc1nc2ccccc2[nH]1)c1ccc(C(=O)O)cc1 8.91 µM [inhibitor, single point]
O=C(Nc1cccc(Cl)c1)c1cc(-c2ccccc2)on1 5.01 µM [inhibitor, partial curve]
CCCCNc1c(-c2ccc(-c3ccc(C(C)=O)cc3)c(OC)c2)nc2cnccn12 8.91 µM [inhibitor, full curve]
CCOc1ccc(-c2csc3ncn(-c4ccc(OC)cc4)c(=O)c23)cc1 0.251 µM [inhibitor, full curve]
CCc1ccc(OCC(=O)NCc2ccco2)c(Br)c1 0.891 µM [inhibitor, full curve, poor fit]
O=C(c1cc(Br)c(Br)s1)N1CCN(c2ccccn2)CC1 35.5 µM [inhibitor, partial curve]
CC(C)c1cc(=O)oc2c3c4c(cc12)CCCN4CCC3 17.8 µM [inhibitor, partial curve]
O=C(CC1Nc2ccccc2NC1=O)Nc1cc(Cl)cc(Cl)c1 (stereo not given) 39.8 µM [inhibitor, single point]
Cc1ccc(Nc2cc(-n3cccn3)ncn2)c(C)c1 0.0891 µM [inhibitor, full curve, poor fit]
CCn1c(CNc2cccc(Cl)c2)nnc1SCC(=O)OC1CCCCC1 0.794 µM [inhibitor, full curve, poor fit]
CC[C@@H]1C(c2cccc(C)c2)=NN(c2ccccc2)[C@H]1C(=O)N1CCOC1=O 44.7 µM [inhibitor, partial curve]
COc1ccccc1-c1c(C)nn2c(N3CCN(Cc4ccccc4)CC3)cc(C)nc12 14.1 µM [inhibitor, partial curve]
Clc1ccc(-c2ccccc2)cn1 316 µM [inhibitor, partial curve, poor fit]
CCOC(=O)C(C)Sc1nc(=O)n2cc(C)ccc2n1 (stereo not given) 31.6 µM [inhibitor, partial curve]
FC(F)(F)c1cc(C(F)(F)F)c2ccc(N3CCN(c4ccccc4)CC3)nc2n1 12.6 µM [inhibitor, partial curve, poor fit]
Cc1cc(-c2ccc(S(=O)(=O)NCc3ccccc3Cl)s2)on1 28.2 µM [inhibitor, partial curve]
CCOc1ccc(C(=O)Nc2ccc(NC(=O)c3ccco3)c(Cl)c2)cc1Cl 14.1 µM [inhibitor, partial curve]
CCC(=O)Nc1cc(OC)c(NC(=S)Nc2ccccc2CC)cc1OC 0.398 µM [inhibitor, full curve, poor fit]
COC(=O)c1nnn(CC(=O)NC(=O)Nc2ccccc2F)c1C(=O)OC 6.31 µM [inhibitor, full curve, poor fit]
CC(=O)Nc1cc(-c2ccccc2)nn1Cc1cccc(Cl)c1 0.282 µM [inhibitor, full curve, poor fit]
c1ccc2c(c1)NCC1CCCN21 (stereo not given) 28.2 µM [inhibitor, partial curve]
COc1ccccc1C(=O)Nc1cc(-c2ccc(C)cc2)no1 6.31 µM [inhibitor, single point]
Cn1c(=O)[nH]c(=O)c2c1nc(CN1CCN(c3ccc(F)cc3)CC1)n2CCc1ccccc1 0.891 µM [inhibitor, partial curve]
COc1ccc(CCC(=O)NCc2nc3cccnc3n2Cc2ccccc2)cc1 22.4 µM [inhibitor, partial curve, poor fit]
CCOc1ccccc1C1C(C#N)=C(N)SC(N)=C1C#N 35.5 µM [inhibitor, partial curve]
COCCOC(=O)c1sc(=S)n(CCOC)c1N 31.6 µM [inhibitor, single point]
N#CC(C#N)=Cc1cc2ccccc2nc1N1CCOCC1 44.7 µM [inhibitor, partial curve]
O=C1C(Cc2ccccc2)Nc2ncnc(N3CCc4ccccc4C3)c2N1Cc1ccc(Cl)cc1 (stereo not given) 44.7 µM [inhibitor, partial curve, poor fit]
O=C(O)c1ccc(N2C(=O)c3[nH]nc(-c4ccccc4)c3C2c2cccc(F)c2)cc1 (stereo not given) 39.8 µM [inhibitor, partial curve]
COc1ccc(C2(CNC(=O)C(=O)Nc3cccc(C(F)(F)F)c3)CCCC2)cc1OC 3.98 µM [inhibitor, partial curve]
CSc1nc(-c2ccccc2)nc(SC)c1C(C)=O 35.5 µM [inhibitor, partial curve]
Cc1ccc(C2c3[nH]c4ccccc4c3CCN2C(=O)Nc2ccc(C)c(C)c2)cc1 (stereo not given) 3.98 µM [inhibitor, partial curve]
CN(C1=C(N2CCCCC2)C(=O)c2ccccc2C1=O)c1ccccc1 17.8 µM [inhibitor, partial curve]
CCOc1ccccc1C(=O)NCc1ccc2c(c1)CCN2C(C)=O 0.355 µM [inhibitor, full curve, poor fit]
CC1(C)CC2CC(C)(CN2C(=O)c2cc(-c3ccccc3)on2)C1 (stereo not given) 35.5 µM [inhibitor, partial curve, poor fit]
CCCCNC(=O)c1[nH]c2ccccc2c1Sc1ccc(C)cc1 31.6 µM [inhibitor, partial curve]
Cc1ccc(C)n1-c1sccc1C(=O)O 39.8 µM [inhibitor, partial curve, poor fit]
CNC(=O)Nc1ccc2snnc2c1 31.6 µM [inhibitor, partial curve]
COc1ccc(-n2[nH]c(C)cc2=O)cc1 0.355 µM [inhibitor, full curve, poor fit]
Cc1ccc2nc(N(Cc3cccnc3)C(=O)C3CCCCC3)sc2c1 56.2 µM [inhibitor, partial curve, poor fit]
CC(C)(C)c1nc(NC(=O)Nc2ccccc2)sc1Br 31.6 µM [inhibitor, partial curve]
COC1Cc2ccccc2N(C(=O)N2CCN(CCO)CC2)c2ccccc21 (stereo not given) 31.6 µM [inhibitor, partial curve, poor fit]
Cc1c(C(N)=O)nnn1-c1ccc(Br)cc1 6.31 µM [inhibitor, partial curve, poor fit]
Cc1cc2c(=O)c(C(=O)c3ccncc3)cn(CC(=O)Nc3cccc(C)c3C)c2cc1C 28.2 µM [inhibitor, partial curve]

Sorted by count of non-hydrogen atoms (rising): part of the list above.
Potency, inconclusive:
CSc1nc(-c2ccccc2)nc(SC)c1C(C)=O 35.5 µM [inhibitor, partial curve]
Cc1ccc2nc(N(Cc3cccnc3)C(=O)C3CCCCC3)sc2c1 56.2 µM [inhibitor, partial curve, poor fit]
O=C1C(Cc2ccccc2)Nc2ncnc(N3CCc4ccccc4C3)c2N1Cc1ccc(Cl)cc1 (stereo not given) 44.7 µM [inhibitor, partial curve, poor fit]

Next part.

Activity change, negative = inhibition, inactive:
O=C(CN1C(=O)c2ccccc2S1(=O)=O)NCCSCc1ccccc1Cl -14.9%
COc1ccc2c(c1)c(N1CCCC1=O)c(C(=O)Nc1ccc(Cl)cc1C)n2C -30.8%
CCOc1ccc2nc(N3CCCCCC3)sc2c1 -1.52%
O=C(c1cc2ccccc2o1)c1cccs1 -5.19%
CC(=O)c1cccc(-n2c(=O)c3c4c(sc3n(CC(=O)c3ccc(Cl)cc3)c2=O)CN(C(C)=O)CC4)c1 -7.52%
O=C(Nc1nccs1)c1ccc(NC(=O)c2ccco2)cc1 -6.16%
CC(C)[C@H](NC(=O)CCCn1nnc2ccccc2c1=O)C(=O)O -11.2%
COc1ccc(CCn2c(C(C)C)nc3c(c(=O)c4ccccc4n3C)c2=O)cc1 -24.1%
Cc1ccc(C(=O)NCCc2cccs2)cc1 -7.86%
COc1cccc(CNC(=O)CCn2c(=O)c3cccn3c3cccnc32)c1OC -19.8%
CCS(=O)(=O)N1CCC2(CC1)OC(=O)C(C)=C2C(=O)NCc1ccccc1C -4.64%
COc1ccc(NC(=O)Nc2cc(C)ccc2F)cc1OC -3.51%
C1CCc2nc3c(nc2C1)CCCC3 -8.01%
S=c1[nH]c(-c2ccccc2)cn1/N=C/c1cccnc1 -10.6%
Nc1c(C(=O)N/N=C/c2cccnc2)oc2nc(-c3ccccc3)cc(-c3ccco3)c12 51.5%
CCOC(=O)c1cnc2ccc(Cl)cc2c1NCCN(C)C -11.2%
CCC(=O)Nc1ccccc1-c1nc2ccccc2n(C(C)C(=O)Nc2ccc(OC)cc2)c1=O (stereo not given) -25.7%
CC(C)C(=O)Nc1ccc(NC(=O)c2cccc3c(Br)cccc23)cc1 -13.6%
CC(C)(C)c1ccc(/C=N/NC(=O)c2ccccn2)cc1 1.57%
O=C(NCc1ccc2c(c1)OCO2)c1nc(S(=O)(=O)Cc2ccccc2)ncc1Cl -5.13%
COCCn1nnnc1CN(CCc1ccccc1)Cc1cc2ccc(C)cc2[nH]c1=O -7.08%
